Results: the supplement of paper PMC10849652
This is one part of the list.

Sequences of proteins named here, by UniProt entry; tags and fusion partners are left off. A change or cut given only in a name is not applied to a line headed by its entry.
UniProt Q86WU2: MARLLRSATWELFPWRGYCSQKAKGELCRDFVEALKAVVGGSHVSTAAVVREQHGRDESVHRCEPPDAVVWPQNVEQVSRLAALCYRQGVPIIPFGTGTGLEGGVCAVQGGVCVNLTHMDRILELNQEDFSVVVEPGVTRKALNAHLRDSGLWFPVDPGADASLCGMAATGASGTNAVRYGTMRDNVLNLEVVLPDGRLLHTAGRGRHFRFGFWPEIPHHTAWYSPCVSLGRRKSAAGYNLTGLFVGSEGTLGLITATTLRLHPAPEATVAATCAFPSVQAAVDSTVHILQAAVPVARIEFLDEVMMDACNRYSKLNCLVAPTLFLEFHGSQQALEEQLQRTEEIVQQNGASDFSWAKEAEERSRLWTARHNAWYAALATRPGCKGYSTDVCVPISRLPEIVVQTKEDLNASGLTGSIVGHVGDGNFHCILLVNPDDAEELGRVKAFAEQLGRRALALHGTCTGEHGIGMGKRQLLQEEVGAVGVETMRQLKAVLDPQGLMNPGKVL
UniProt P83369: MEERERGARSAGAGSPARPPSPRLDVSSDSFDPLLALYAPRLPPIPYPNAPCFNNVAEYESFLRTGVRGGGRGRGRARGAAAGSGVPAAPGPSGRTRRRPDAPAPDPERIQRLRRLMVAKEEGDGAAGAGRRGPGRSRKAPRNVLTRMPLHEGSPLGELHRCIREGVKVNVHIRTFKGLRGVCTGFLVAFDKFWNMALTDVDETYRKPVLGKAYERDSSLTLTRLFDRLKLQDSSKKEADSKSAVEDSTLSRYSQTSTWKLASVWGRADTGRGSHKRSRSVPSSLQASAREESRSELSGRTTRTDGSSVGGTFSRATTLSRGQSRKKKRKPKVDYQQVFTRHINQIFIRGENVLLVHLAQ
UniProt Q8N386: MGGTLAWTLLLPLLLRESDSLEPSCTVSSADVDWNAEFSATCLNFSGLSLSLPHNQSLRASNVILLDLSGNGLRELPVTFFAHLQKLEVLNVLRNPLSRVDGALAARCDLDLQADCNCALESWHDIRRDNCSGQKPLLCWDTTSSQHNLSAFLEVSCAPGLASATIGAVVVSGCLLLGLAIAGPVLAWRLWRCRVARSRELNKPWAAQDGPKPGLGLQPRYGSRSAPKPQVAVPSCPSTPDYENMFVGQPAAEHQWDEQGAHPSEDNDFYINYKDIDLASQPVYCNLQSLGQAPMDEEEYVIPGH
UniProt A6NK58: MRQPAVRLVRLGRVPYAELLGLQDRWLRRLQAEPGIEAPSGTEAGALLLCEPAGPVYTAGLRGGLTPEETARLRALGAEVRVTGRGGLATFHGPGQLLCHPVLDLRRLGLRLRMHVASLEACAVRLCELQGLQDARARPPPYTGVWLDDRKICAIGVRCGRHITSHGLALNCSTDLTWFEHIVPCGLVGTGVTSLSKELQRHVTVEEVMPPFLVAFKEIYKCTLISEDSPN
UniProt Q96FE5: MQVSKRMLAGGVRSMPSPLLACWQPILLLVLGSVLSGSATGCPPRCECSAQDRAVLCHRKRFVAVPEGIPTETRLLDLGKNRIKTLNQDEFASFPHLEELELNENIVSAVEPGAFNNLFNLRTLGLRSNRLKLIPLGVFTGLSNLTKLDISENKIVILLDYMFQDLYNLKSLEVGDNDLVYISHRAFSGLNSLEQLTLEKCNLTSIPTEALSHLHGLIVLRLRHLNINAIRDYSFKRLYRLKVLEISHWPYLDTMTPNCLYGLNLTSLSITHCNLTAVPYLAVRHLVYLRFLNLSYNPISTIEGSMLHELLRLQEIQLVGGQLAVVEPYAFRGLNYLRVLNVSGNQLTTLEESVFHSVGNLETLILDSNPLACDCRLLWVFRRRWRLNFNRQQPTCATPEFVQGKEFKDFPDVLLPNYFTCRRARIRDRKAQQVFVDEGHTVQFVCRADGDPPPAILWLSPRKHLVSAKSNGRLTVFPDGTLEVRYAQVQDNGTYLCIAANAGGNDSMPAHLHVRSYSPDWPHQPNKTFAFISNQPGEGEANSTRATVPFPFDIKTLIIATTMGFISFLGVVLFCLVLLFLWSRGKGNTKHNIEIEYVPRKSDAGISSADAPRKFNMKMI
UniProt Q8N3X6: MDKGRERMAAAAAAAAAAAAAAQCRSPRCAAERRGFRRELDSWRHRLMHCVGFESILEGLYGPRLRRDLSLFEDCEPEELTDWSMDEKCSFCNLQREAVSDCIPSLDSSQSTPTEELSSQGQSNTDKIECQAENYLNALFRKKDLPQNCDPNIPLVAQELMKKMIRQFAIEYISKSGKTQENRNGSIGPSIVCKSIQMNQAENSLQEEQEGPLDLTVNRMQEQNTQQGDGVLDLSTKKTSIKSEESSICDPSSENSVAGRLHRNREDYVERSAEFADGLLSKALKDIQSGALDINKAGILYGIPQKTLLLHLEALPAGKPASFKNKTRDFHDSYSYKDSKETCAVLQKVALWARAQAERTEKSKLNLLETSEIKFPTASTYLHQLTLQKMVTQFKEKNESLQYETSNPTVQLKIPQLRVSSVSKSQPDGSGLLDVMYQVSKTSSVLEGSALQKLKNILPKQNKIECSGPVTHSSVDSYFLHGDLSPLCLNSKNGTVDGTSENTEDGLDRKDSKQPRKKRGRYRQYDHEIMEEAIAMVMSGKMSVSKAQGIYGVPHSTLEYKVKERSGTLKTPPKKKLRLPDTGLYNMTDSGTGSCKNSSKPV
UniProt Q6PJG9: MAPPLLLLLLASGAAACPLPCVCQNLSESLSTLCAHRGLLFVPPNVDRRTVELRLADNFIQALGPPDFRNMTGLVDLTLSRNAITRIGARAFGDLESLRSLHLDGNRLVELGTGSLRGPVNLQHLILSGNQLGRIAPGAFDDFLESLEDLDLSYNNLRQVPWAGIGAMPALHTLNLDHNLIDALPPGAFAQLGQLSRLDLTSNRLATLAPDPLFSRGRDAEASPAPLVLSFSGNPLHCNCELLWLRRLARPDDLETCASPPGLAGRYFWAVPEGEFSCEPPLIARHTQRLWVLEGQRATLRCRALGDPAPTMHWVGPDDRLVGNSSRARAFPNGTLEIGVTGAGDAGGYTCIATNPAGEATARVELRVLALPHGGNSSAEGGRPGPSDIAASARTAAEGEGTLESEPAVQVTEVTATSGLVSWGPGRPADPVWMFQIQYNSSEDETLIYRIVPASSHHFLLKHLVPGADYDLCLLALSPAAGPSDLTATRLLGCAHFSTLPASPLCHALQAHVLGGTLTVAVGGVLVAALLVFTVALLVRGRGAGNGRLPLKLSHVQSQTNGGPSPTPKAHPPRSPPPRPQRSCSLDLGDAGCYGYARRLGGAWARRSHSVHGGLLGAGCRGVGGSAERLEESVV
UniProt Q14114: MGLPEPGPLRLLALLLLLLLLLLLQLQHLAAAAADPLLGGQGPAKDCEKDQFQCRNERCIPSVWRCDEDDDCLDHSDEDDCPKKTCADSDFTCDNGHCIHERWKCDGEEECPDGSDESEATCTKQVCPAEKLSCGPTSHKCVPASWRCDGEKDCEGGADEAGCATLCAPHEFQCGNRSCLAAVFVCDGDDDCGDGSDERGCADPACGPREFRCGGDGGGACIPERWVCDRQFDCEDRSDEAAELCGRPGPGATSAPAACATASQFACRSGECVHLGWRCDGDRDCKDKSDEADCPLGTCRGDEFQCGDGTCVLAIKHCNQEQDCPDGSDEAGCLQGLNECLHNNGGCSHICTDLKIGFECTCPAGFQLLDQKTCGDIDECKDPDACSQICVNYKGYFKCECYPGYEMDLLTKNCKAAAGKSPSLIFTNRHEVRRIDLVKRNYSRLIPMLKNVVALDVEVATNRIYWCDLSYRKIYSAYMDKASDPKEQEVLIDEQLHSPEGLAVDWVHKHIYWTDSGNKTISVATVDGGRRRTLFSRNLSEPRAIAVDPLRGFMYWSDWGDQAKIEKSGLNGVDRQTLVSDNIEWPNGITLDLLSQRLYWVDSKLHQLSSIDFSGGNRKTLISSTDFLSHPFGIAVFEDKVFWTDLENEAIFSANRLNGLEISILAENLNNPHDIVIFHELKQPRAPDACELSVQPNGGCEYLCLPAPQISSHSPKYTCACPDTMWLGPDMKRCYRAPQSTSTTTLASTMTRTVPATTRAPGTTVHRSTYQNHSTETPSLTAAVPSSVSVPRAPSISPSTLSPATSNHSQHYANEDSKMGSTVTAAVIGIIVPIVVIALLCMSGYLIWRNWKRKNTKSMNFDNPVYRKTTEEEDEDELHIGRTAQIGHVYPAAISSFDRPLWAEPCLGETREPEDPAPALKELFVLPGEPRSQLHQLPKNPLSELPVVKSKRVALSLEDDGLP
UniProt Q96JM4: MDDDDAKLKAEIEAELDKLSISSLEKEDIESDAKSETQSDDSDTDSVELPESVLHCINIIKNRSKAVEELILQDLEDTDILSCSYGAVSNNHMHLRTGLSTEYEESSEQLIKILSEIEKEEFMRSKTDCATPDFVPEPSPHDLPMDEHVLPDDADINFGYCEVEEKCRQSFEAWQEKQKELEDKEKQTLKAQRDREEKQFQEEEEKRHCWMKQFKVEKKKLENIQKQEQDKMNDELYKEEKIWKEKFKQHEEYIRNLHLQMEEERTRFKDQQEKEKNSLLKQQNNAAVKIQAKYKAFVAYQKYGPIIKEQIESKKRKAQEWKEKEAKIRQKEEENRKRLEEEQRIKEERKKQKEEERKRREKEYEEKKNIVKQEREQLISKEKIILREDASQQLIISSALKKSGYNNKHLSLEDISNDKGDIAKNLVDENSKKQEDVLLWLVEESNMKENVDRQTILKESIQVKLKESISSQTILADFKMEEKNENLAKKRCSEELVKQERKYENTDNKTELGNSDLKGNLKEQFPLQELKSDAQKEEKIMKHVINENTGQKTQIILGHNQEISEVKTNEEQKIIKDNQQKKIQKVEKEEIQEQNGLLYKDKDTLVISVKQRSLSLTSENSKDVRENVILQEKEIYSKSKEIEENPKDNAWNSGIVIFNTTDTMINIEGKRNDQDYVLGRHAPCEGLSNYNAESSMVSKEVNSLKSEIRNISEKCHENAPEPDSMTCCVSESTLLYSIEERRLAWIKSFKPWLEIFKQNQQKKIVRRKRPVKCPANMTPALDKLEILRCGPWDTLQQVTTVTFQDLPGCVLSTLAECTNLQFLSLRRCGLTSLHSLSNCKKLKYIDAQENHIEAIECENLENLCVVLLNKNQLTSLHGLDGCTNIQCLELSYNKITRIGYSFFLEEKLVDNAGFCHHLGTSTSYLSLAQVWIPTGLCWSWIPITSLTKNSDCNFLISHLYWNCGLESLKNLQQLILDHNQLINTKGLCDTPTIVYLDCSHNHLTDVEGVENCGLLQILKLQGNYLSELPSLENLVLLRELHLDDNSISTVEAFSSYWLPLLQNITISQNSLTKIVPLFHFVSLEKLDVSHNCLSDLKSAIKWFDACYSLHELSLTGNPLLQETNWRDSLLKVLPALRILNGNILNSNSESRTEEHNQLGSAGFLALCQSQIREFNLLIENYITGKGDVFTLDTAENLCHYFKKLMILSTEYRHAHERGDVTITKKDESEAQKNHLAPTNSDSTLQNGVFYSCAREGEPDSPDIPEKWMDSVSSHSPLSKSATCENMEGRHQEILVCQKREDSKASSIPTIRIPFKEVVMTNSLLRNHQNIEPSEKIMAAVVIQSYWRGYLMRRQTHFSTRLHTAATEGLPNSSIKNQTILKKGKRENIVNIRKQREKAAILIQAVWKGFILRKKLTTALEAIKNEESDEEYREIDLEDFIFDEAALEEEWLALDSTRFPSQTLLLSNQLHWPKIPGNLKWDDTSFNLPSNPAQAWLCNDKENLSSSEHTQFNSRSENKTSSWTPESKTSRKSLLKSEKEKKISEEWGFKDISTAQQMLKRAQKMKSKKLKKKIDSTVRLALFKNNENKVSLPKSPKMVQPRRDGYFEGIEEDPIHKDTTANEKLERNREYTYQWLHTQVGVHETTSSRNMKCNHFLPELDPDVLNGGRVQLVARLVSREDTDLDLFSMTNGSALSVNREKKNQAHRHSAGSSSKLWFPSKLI
UniProt Q8WVP7: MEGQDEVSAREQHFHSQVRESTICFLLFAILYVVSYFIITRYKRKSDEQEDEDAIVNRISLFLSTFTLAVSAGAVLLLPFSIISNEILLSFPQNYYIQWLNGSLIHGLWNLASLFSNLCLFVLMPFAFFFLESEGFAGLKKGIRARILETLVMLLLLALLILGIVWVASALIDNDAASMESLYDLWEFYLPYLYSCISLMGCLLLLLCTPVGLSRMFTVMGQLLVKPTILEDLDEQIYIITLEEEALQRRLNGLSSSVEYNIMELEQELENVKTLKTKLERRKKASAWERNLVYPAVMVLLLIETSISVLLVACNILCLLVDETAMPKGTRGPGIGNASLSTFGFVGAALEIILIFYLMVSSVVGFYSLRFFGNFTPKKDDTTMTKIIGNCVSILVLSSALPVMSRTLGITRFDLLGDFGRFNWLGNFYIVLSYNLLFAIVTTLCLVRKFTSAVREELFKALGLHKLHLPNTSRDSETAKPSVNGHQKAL
UniProt Q53QV2: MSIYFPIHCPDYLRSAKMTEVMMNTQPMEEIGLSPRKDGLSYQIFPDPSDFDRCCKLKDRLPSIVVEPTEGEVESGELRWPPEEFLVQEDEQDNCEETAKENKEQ

Experiments:
Test in all cases: log2 fold change, soluble protein after heating vs DMSO (PISA); higher = thermal stabilisation; K562 lysate, 10 uM; active = over 0.2 and 3.5 SD of the protein, either way, in both replicates (recomputed)
dasatinib = compound: Cc1nc(Nc2ncc(C(=O)Nc3c(C)cccc3Cl)s2)cc(N2CCN(CCO)CC2)n1 [dasatinib]
In short: (§1)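 Following dounce homogenisation of K562 pellets in PBS pH 7.4 with 1 mM MgCl2, crude extract at 1 mg/mL protein was incubated for 30 min with 10 μM compound. Aliquots were then heated for 3 min over 48°C-58°C and pooled, NP-40 was added to 0.5% at 4°C, and soluble protein was recovered as the supernatant at 21,000xg for 90 min. Channel-sum-equalised TMTpro 16plex LC-MS/MS quantified this protein. Each value, from duplicates, is a log-two fold change in thermal stability relative to solvent controls.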

[1] = compound: Cn1cc(-c2ccc3c(c2)CCN3C(=O)Cc2cccc(C(F)(F)F)c2)c2c(N)ncnc21
In short: as §1

quisinostat = compound: Cn1cc(CNCC2CCN(c3ncc(C(=O)NO)cn3)CC2)c2ccccc21 [quisinostat]
In short: as §1

[2] = compound: NC(=O)Nc1cc(-c2cccc(F)c2)sc1C(=O)N[C@H]1CCCNC1
In short: as §1

[3] = compound: NC1(c2ccc(-c3nc4ccn5c(=O)[nH]nc5c4cc3-c3ccccc3)cc2)CCC1
In short: as §1

vorinostat = compound: O=C(CCCCCCC(=O)Nc1ccccc1)NO [vorinostat]
In short: as §1

silmitasertib = compound: O=C(O)c1ccc2c(c1)nc(Nc1cccc(Cl)c1)c1ccncc12 [silmitasertib]
In short: as §1

[4] = compound: O=C1NC(=O)C(c2cnc3ccccn23)=C1c1cn2c3c(cc(F)cc13)CN(C(=O)N1CCCCC1)CC2
In short: as §1

entospletinib = compound: c1cn2cc(-c3ccc4cn[nH]c4c3)nc(Nc3ccc(N4CCOCC4)cc3)c2n1 [entospletinib]
In short: as §1

[5] = compound: NCC(=O)Nc1ccc(-n2nc(C(F)(F)F)cc2-c2ccc3c(ccc4ccccc43)c2)cc1
In short: as §1

[6] = compound: NC(=O)c1cnc(N[C@@H]2CCCC[C@@H]2N)nc1Nc1cccc(-n2nccn2)c1
In short: as §1

Row | Target | log2 fold change (dasatinib) | log2 fold change [1] | log2 fold change (quisinostat) | log2 fold change [2] | log2 fold change [3] | log2 fold change (vorinostat) | log2 fold change (silmitasertib) | log2 fold change [4] | log2 fold change (entospletinib) | log2 fold change [5] | log2 fold change [6]
1 | LRP6 (UniProt O75581) | inactive: -0.017 | inactive: -0.099 | inactive: 0.033 | inactive: 0.037 | inactive: -0.061 | inactive: 0.229 | inactive: 0.069 | inactive: 0.061 | inactive: -0.052 |  | 
2 | LDHD (UniProt Q86WU2) |  |  |  |  |  |  |  |  | inactive: 0.026 |  | 
3 | LHFPL2 (UniProt Q6ZUX7) |  |  | inactive: 0.013 | inactive: 0.124 |  |  |  | inactive: 0.031 |  |  | 
4 | LSM11 (UniProt P83369) | inactive: 0.266 | inactive: -0.049 | inactive: -0.114 | inactive: 0.049 | inactive: -0.037 | inactive: -0.027 | inactive: 0.194 | inactive: 0.014 | inactive: -0.02 | inactive: 0.233 | 
5 | LRRC25 (UniProt Q8N386) |  |  | inactive: 0.05 | inactive: 0.155 |  |  |  | inactive: 0.003 | inactive: -0.041 |  | inactive: -0.083
6 | LIPT2 (UniProt A6NK58) |  |  |  |  |  |  |  |  | inactive: -0.052 |  | inactive: -0.038
7 | LINGO1 (UniProt Q96FE5) | inactive: 0.026 | inactive: -0.018 |  |  | inactive: 0.01 | inactive: 0.132 | inactive: 0.006 |  | inactive: -0.031 | inactive: 0.044 | inactive: 0.042
8 | LCORL (UniProt Q8N3X6) |  |  |  |  | inactive: -0.355 | inactive: -0.204 | inactive: 0.104 |  |  | inactive: 0.091 | 
9 | LRFN4 (UniProt Q6PJG9) | inactive: 0.049 | inactive: 0.035 | inactive: 0.05 | inactive: -0.001 | inactive: 0.006 | inactive: 0.056 | inactive: -0.06 | inactive: -0.073 | inactive: 0.017 | inactive: 0.028 | inactive: 0.016
10 | LEPROTL1 isoform 2 (UniProt O95214) | inactive: -0.056 | inactive: 0.248 |  |  | inactive: 0.033 | inactive: -0.363 | inactive: 0.11 |  |  | inactive: -0.012 | inactive: -0.055
11 | LRP8 (UniProt Q14114) |  |  | inactive: -0.09 | inactive: 0.058 |  |  |  | inactive: -0.063 | inactive: 0.028 | inactive: 0.045 | inactive: 0.059
12 | LRRIQ1 (UniProt Q96JM4) |  |  | inactive: -0.518 | inactive: 0.242 |  |  |  | active: 0.754 |  | inactive: 0.056 | inactive: 0.019
13 | LIN52 (UniProt Q52LA3) | inactive: -0.272 | inactive: 0.023 | inactive: 0.064 | inactive: -0.073 | inactive: -0.002 | inactive: 0.135 | inactive: 0.07 | inactive: -0.043 |  |  | inactive: -0.124
14 | LMBR1 isoform 3 (UniProt Q8WVP7) |  |  | inactive: 0.006 | inactive: 0.159 |  |  |  | inactive: 0.017 |  |  | 
15 | LBH (UniProt Q53QV2) | inactive: 0.04 | inactive: -0.087 |  |  | inactive: 0.084 | inactive: 0.148 | inactive: -0.075 |  | inactive: -0.115 |  | 
16 | LRG1 (UniProt P02750) |  |  | inactive: -0.022 | inactive: 0.039 | inactive: 0.167 | inactive: -0.007 | inactive: -0.036 | inactive: -0.055 | inactive: 0.075 |  | 
17 | LDHA isoform 4 (UniProt P00338) |  |  |  |  |  |  |  |  |  |  | inactive: 0.059
18 | LNX1 (UniProt Q8TBB1) | inactive: -0.312 | inactive: -0.111 | inactive: -0.029 | inactive: -0.009 |  |  |  | inactive: 0.015 |  |  | 
19 | LRRC9 (UniProt Q6ZRR7) |  |  | inactive: -0.171 | inactive: -0.038 |  |  |  | inactive: -0.034 | inactive: 0.011 | inactive: 0.106 | 
20 | LSR isoform 3 (UniProt Q86X29) |  |  | inactive: 0.093 | inactive: -0.232 |  |  |  | inactive: -0.028 |  |  | 

Looked up above.
Value for LEPROTL1 isoform 2 (UniProt O95214) under log2 fold change (vorinostat): inactive: -0.363
Value for LIPT2 (UniProt A6NK58) under log2 fold change (entospletinib): inactive: -0.052
